Results are given in words; binding and its absence hold for the method and conditions named. Binding seen in cells or lysates may run through a third protein. Some entries that bind do so weakly or less than the wild type.
Target: p65 subunit of NF-κB (rat (endogenous in primary astrocytes)) (UniProt Q7TQN4)
Assay: co-IP; lysates of primary cultured astrocytes transfected with wild-type- or ΔNLS-Ref-1 and treated with LPS for the times indicated; precipitated with anti-p65 antibody and protein G-A agarose beads overnight at 4 °C; immunoblot for p50

Sequences of proteins named here, by UniProt entry; tags and fusion partners are left off. Residues count along the entry.
UniProt Q7TQN4: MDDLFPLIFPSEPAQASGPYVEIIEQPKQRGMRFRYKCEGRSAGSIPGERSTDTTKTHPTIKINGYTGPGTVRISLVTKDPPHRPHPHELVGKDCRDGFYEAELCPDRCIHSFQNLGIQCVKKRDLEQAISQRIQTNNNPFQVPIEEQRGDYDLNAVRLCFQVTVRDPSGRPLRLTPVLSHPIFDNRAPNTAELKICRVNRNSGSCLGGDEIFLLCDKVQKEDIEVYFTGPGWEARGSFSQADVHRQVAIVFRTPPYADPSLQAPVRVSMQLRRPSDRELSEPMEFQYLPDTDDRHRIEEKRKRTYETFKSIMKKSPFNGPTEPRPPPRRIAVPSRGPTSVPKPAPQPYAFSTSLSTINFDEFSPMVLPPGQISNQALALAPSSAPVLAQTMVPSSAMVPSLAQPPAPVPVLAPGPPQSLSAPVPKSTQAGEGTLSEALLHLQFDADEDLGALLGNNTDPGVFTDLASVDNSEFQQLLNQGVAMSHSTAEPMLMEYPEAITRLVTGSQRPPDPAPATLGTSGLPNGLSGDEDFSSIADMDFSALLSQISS
UniProt Q63369, residues 1-483: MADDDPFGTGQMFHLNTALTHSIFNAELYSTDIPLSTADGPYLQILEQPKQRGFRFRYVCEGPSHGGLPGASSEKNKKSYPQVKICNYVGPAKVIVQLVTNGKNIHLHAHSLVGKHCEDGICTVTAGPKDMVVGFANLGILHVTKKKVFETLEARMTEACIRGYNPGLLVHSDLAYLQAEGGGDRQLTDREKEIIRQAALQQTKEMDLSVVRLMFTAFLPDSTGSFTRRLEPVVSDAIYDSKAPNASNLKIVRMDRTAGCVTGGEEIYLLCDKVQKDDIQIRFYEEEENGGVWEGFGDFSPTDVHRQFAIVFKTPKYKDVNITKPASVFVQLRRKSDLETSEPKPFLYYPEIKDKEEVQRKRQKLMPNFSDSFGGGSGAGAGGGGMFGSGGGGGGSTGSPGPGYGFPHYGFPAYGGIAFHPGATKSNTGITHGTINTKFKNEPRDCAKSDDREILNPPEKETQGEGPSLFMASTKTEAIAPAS

- binding: binds
Substance: p50, a NF-κB subunit (from UniProt Q63369 1-483)

— article PMC5162091
